Construct, isoform or probe ends are uncertain for at least one entry. Where cells or extracts were used, other partners may take part. For some assays here: A negative result means that nothing was seen under these conditions. For some assays here: The comparison behind a weaker result is the experiment's own reference, which may not be listed here.
Tests used:
[1] = test system: c-Fos (endogenous); assay: pull-down, immunoblot; settings: JEG-3 extract, pan-Fos; pull-down: extract in 25 mM Tris-HCl pH 7.5, 150 mM NaCl, 0.5% Triton X-100, 0.5 mM DTT, 4 C overnight; protein in an extract; label: 3' biotin on sense strand
[2] = target: C/EBP-beta (endogenous) (UniProt P17676); assay: pull-down, immunoblot; settings: JEG-3 extract, pull-down: extract in 25 mM Tris-HCl pH 7.5, 150 mM NaCl, 0.5% Triton X-100, 0.5 mM DTT, 4 C overnight, protein in an extract, label: 3' biotin on sense strand
[3] = test system: Fra-1 (endogenous); assay: pull-down, immunoblot; settings: JEG-3 extract, pan-Fos; pull-down: extract in 25 mM Tris-HCl pH 7.5, 150 mM NaCl, 0.5% Triton X-100, 0.5 mM DTT, 4 C overnight; protein in an extract; label: 3' biotin on sense strand
[4] = test system: Fos B (endogenous); assay: pull-down, immunoblot; settings: JEG-3 extract, pan-Fos; pull-down: extract in 25 mM Tris-HCl pH 7.5, 150 mM NaCl, 0.5% Triton X-100, 0.5 mM DTT, 4 C overnight; protein in an extract; label: 3' biotin on sense strand
[5] = test system: Fra-2 (endogenous); assay: pull-down, immunoblot; settings: JEG-3 extract, pan-Fos; pull-down: extract in 25 mM Tris-HCl pH 7.5, 150 mM NaCl, 0.5% Triton X-100, 0.5 mM DTT, 4 C overnight; protein in an extract; label: 3' biotin on sense strand
[6] = target: C/EBP-beta (endogenous) (UniProt P17676); assay: competition EMSA; settings: 250-fold excess vs N8, JEG-3 extract; EMSA: 35 fmol probe, 2 ug Ets-2-GST or 10 ug JEG-3 extract; protein in an extract; label: none (competitor)
[7] = target: C/EBP-beta (endogenous) (UniProt P17676); assay: competition pull-down; settings: 250-fold excess vs N10, JEG-3 extract; EMSA: 35 fmol probe, 2 ug Ets-2-GST or 10 ug JEG-3 extract; protein in an extract; label: none (competitor)
[8] = test system: Ets-2 (endogenous) + C/EBP-beta (endogenous); assay: pull-down, immunoblot; settings: Ets-2 via C/EBP-beta, competed by unlabeled wild type; pull-down: extract in 25 mM Tris-HCl pH 7.5, 150 mM NaCl, 0.5% Triton X-100, 0.5 mM DTT, 4 C overnight; protein in an extract; label: 3' biotin on sense strand
[9] = target: C/EBP-beta (endogenous) (UniProt P17676); assay: EMSA supershift; settings: JEG-3 extract, self-competed by 250-fold excess; EMSA: 35 fmol probe, 2 ug Ets-2-GST or 10 ug JEG-3 extract; protein in an extract; label: 32P
[10] = target: C/EBP-alpha (endogenous) (UniProt P49715); assay: EMSA supershift; settings: JEG-3 extract, minor effect; EMSA: 35 fmol probe, 2 ug Ets-2-GST or 10 ug JEG-3 extract; protein in an extract; label: 32P

Amino acid sequences for entries named in this document (tags omitted). A change or cut given only in a name is not applied to a line headed by its entry.
UniProt P17676: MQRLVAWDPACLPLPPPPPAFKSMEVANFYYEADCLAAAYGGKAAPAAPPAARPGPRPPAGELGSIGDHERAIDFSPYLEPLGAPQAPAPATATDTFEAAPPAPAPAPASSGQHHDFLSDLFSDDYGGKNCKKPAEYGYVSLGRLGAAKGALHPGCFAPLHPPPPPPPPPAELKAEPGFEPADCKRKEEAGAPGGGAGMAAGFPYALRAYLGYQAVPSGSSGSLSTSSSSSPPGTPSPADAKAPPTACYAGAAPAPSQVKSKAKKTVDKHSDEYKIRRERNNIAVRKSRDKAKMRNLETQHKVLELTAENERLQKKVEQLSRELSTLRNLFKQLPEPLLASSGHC
UniProt P49715, whole entry: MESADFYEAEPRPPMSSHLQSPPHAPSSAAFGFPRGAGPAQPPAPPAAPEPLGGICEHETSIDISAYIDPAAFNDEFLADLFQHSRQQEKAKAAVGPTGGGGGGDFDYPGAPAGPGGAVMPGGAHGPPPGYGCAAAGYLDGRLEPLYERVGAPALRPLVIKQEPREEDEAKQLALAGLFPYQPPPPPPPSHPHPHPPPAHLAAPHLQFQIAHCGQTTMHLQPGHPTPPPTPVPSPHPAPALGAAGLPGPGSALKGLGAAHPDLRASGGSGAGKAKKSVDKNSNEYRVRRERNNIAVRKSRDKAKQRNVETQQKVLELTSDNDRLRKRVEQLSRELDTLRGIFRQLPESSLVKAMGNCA

Question: Does “TAAACAGGACTGACTCAACTCCTCCCC (double strand) [biotinylated AP-1 oligo]” bind [1]?
Answer: Result: no binding

Question: Does “TAAACAGGACTGACTCAACTCCTCCCC (double strand) [biotinylated AP-1 oligo]” bind ([2]; possibly indirect)?
Answer: Result: binds

Question: Does “TAAACAGGACTGACTCAACTCCTCCCC (double strand) [biotinylated AP-1 oligo]” bind [3]?
Answer: Result: no binding

Question: Does “TAAACAGGACTGACTCAACTCCTCCCC (double strand) [biotinylated AP-1 oligo]” bind [4]?
Answer: Result: no binding

Question: Does “TAAACAGGACTGACTCAACTCCTCCCC (double strand) [biotinylated AP-1 oligo]” bind [5]?
Answer: Result: no binding

Question: What does the source list for “AGGTAGGGAGGTTATCCCCCAAACAGGACT (double strand) [mut C/EBP]”?
Answer: binding result [6]: no binding; binding result [7]: no binding

Question: Which results are given for “AGGTAGGGAGGTTATGCAATAAACAGGACT (double strand) [biotinylated C/EBP oligo]”?
Answer: binding result ([2]; competed by unlabeled wild type): binds; binding result [8]: binds

Question: Does “AGGTAGGGAGGTTATGCAATAAACAGGACT (double strand) [wt C/EBP (EMSA)]” bind [9]?
Answer: Result: binds

Question: Does “AGGTAGGGAGGTTATGCAATAAACAGGACT (double strand) [wt C/EBP (EMSA)]” bind [10]?
Answer: Result: binds more weakly

Source: publication PMC1817651
